# Test results reported in PubChem BioAssay AID720533 (National Center for Advancing Translational Sciences (NCATS), 2013).
# Among all 18,000 compounds or so, about 750 (4.2%) were called active. Inconclusive means that the source gave no clear call. Such entries were picked first, then a sample of the others. The call rests on the fitted dose curve; tested in HEK293 cells. A potency beside an inconclusive call is a rough fit, not a confirmed value.
# Assay: qHTS for Inhibitors of binding or entry into cells for Lassa Virus
# Conditions: Lassa virus pseudotyped entry inhibition, cell-based qHTS
# [1] = activity change, negative = inhibition: at 49.2 µM (top of the series) unless noted
# On the % scale 0 is the no-effect control and ±100 the full control effect; potency means the concentration at half of the fitted maximal effect.
smiles,measurement,setting,value
CC(=O)O[C@]1(C(C)=O)CC[C@H]2[C@@H]3C=C(Cl)C4=CC(=O)[C@@H]5C[C@@H]5[C@]4(C)[C@H]3CC[C@@]21C,Potency,[1],"inconclusive: 20 µM [inhibitor, partial curve]"
CCO[C@H](c1cc(OC)cc([N+](=O)[O-])c1OC)[C@H](C)[C@@H](OC)[C@H](C)C=CCC(=O)OC,"activity change, negative = inhibition",[1],inactive: -6.4% [at 8.59 µM]
Clc1ccc(CO/N=C(\Cn2ccnc2)c2ccc(Cl)cc2Cl)c(Cl)c1,Potency,[1],"inconclusive: 35.5 µM [inhibitor, single point]"
CC(C)N1CCN(C(=O)c2cnn(-c3nccc(-c4ccc5c(c4)OCO5)n3)c2-c2ccco2)CC1,Potency,[1],"inconclusive: 12.6 µM [inhibitor, single point]"
CSc1ccccc1C(=O)NCC1Cc2cccc(-c3ncccc3C)c2O1 (stereo not drawn),Potency,[1],inactive
CC(C)N=c1cc2n(-c3ccc(Cl)cc3)c3ccccc3nc-2cc1Nc1ccc(Cl)cc1,Potency,[1],"inconclusive: 11.2 µM [inhibitor, partial curve, poor fit]"
CC1(C)O[C@H]2OC([C@H](O)CON3C(=O)c4ccccc4C3=O)[C@H](O)[C@@H]2O1 (stereo partly drawn),"activity change, negative = inhibition",[1],inactive: -8.6% [at 8.59 µM]
CC(=O)OC[C@H]1O[C@H](CCON=C(C)CCN2CCc3nc(-c4ccccc4)c(-c4ccccc4)cc3C2)C=C[C@H]1OC(C)=O,"activity change, negative = inhibition",[1],inactive: 12.9% [at 8.59 µM]
CC(=O)OC[C@H]1O[C@@H](n2ncc(=O)[nH]c2=O)[C@H](OC(C)=O)[C@@H]1OC(C)=O,Potency,[1],active: 1.58 µM
NS(=O)(=O)c1ccc(N=Nc2c(O)[nH]c3ccc(C(=O)NCCCn4ccnc4)cc23)cc1,Potency,[1],"inconclusive: 3.15 µM [inhibitor, full curve, poor fit]"
CN1C[C@H](C(=O)N[C@]2(C)O[C@@]3(O)[C@@H]4CCCN4C(=O)[C@H](Cc4ccccc4)N3C2=O)C[C@@H]2c3cccc4[nH]cc(c34)C[C@H]21,Potency,[1],"inconclusive: 28.2 µM [inhibitor, partial curve]"
OC[C@@H]1O[C@@H](O)[C@H](O)[C@H](O)[C@@H]1O,Potency,[1],inactive
COc1cc(OC)c2c(-c3cccc(-c4cccc(C)c4)c3)cc(=O)oc2c1,Potency,[1],"inconclusive: 1.78 µM [inhibitor, full curve]"
CCCCCC1=C(C(=O)OC)C(C(=O)OCC)N(S(=O)(=O)C(F)(F)F)c2ccccc21 (stereo not drawn),Potency,[1],"inconclusive: 20 µM [inhibitor, single point]"
COc1ccc2c(=O)c(C)c(-c3ccccc3)oc2c1CN(C)C,"activity change, negative = inhibition",[1],inconclusive: -33.8% [inhibitor]
CC(C)=CCCC(C)=CCN1C(=O)[C@@]2(CC(C)=C[C@@H](COCc3ccccc3)O2)c2ccccc21,"activity change, negative = inhibition",[1],inactive: -22.3% [at 8.59 µM]
Cc1cccc(C(=O)N2CCC(=O)N([C@H](COCc3cccc(Cl)c3)Cc3ccccc3)CC2)c1,Potency,[1],"inconclusive: 8.91 µM [inhibitor, partial curve]"
CC(=O)[C@@H]1[C@H]2[C@H](C(=O)[C@H]3OC[C@@H]2O3)[C@H]2C=Cc3ccccc3N21,Potency,[1],"inconclusive: 20 µM [inhibitor, partial curve, poor fit]"
Nc1ccc(O)c([N+](=O)[O-])c1,Potency,[1],inactive
CC(=O)OC1CN2CCC1CC2 (stereo not drawn),Potency,[1],inactive
Cc1ccccc1Nc1oc(-c2ccccc2)nc1-c1ccc(C(F)(F)F)cc1,Potency,[1],inconclusive: 0.0008 µM [inhibitor]
CC(=O)OCC1OC(Oc2cc(OC(C)=O)c3c(=O)cc(-c4ccc(OC(C)=O)c(OC(C)=O)c4)oc3c2)C(OC(C)=O)C(OC(C)=O)C1OC(C)=O (stereo not drawn),Potency,[1],"inconclusive: 15.8 µM [inhibitor, partial curve]"
CC(=O)Nc1ccccc1-c1nc(CNC(=O)c2ccc(F)c(F)c2)c(C)o1,Potency,[1],inactive
Nc1ccc([N+](=O)[O-])cc1O,Potency,[1],"inconclusive: 56.2 µM [inhibitor, single point]"
CNC(=O)c1cc(-c2ccc(F)cc2)cc(-c2ccc(S(=O)(=O)N3CCCC3)cc2)c1N,Potency,[1],"inconclusive: 8.88 µM [inhibitor, partial curve, poor fit]"
Cc1ccc2c(c1)c1c3n2CCN[C@H]3CCC1,Potency,[1],"inconclusive: 14.1 µM [inhibitor, single point]"
CCOC(=O)C1=C(C)c2ccccc2OC1(C(=O)OCC)c1ccccc1 (stereo not drawn),Potency,[1],"inconclusive: 39.8 µM [inhibitor, single point]"
COc1ccc([C@H]2C[C@H](n3cc(-c4ccc(F)cc4)nn3)[C@@H](O)CN2CC2CCCCC2)cc1,Potency,[1],"inconclusive: 6.28 µM [inhibitor, partial curve, poor fit]"
COc1ccccc1C(=O)N1[C@@H](C(C)C)COc2cc(Br)ccc2S1(=O)=O,Potency,[1],"inconclusive: 35.3 µM [inhibitor, single point]"
CC[C@@H]1C(c2ccc(F)cc2)=NN(c2ccccc2)[C@H]1C(=O)N1CCOC1=O,Potency,[1],"inconclusive: 39.8 µM [inhibitor, single point]"
NCCCCN=C(N)N,Potency,[1],"inconclusive: 14.1 µM [inhibitor, full curve, poor fit]"
CNS(=O)(=O)CCc1ccc2[nH]cc(C3CCN(C)CC3)c2c1,Potency,[1],"inconclusive: 20 µM [inhibitor, partial curve]"
O=c1[nH]cc(N(CCCl)CCCl)c(=O)[nH]1,Potency,[1],"inconclusive: 14.1 µM [inhibitor, partial curve]"
CC(C)C[C@H]1COc2cccc(N3CCCCC3)c2S(=O)(=O)N1,"activity change, negative = inhibition",[1],inconclusive: 14.3% [inhibitor]
same,"activity change, negative = inhibition",at 49.2 µM (top of the series),inactive: 35.5%
Cc1cnc(C)c(-c2cc(F)cc3c2OC(CNC(=O)C2CCOC2)C3)n1 (stereo not drawn),Potency,[1],inactive
CNC(=O)CN(CCN(CCN(CC(=O)[O-])CC(=O)NC)CC(=O)[O-])CC(=O)[O-].O.[Gd+3],Potency,[1],"inconclusive: 35.5 µM [inhibitor, single point]"
CC(=O)OC1CC2C(C)(C)C(=O)C3OC3[C@]2(C)C2CC[C@@]3(C)C(c4ccoc4)OC(=O)C4OC43[C@]12C (stereo partly drawn),Potency,[1],"inconclusive: 35.5 µM [inhibitor, single point]"

# Another view of some results above:
smiles	measurement	setting	value
CC(=O)O[C@]1(C(C)=O)CC[C@H]2[C@@H]3C=C(Cl)C4=CC(=O)[C@@H]5C[C@@H]5[C@]4(C)[C@H]3CC[C@@]21C	Potency	[1]	inconclusive: 20 µM [inhibitor, partial curve]
CSc1ccccc1C(=O)NCC1Cc2cccc(-c3ncccc3C)c2O1 (stereo not drawn)	Potency	[1]	inactive
CC(=O)OC[C@H]1O[C@@H](n2ncc(=O)[nH]c2=O)[C@H](OC(C)=O)[C@@H]1OC(C)=O	Potency	[1]	active: 1.58 µM
CN1C[C@H](C(=O)N[C@]2(C)O[C@@]3(O)[C@@H]4CCCN4C(=O)[C@H](Cc4ccccc4)N3C2=O)C[C@@H]2c3cccc4[nH]cc(c34)C[C@H]21	Potency	[1]	inconclusive: 28.2 µM [inhibitor, partial curve]
OC[C@@H]1O[C@@H](O)[C@H](O)[C@H](O)[C@@H]1O	Potency	[1]	inactive
CCCCCC1=C(C(=O)OC)C(C(=O)OCC)N(S(=O)(=O)C(F)(F)F)c2ccccc21 (stereo not drawn)	Potency	[1]	inconclusive: 20 µM [inhibitor, single point]
COc1ccc2c(=O)c(C)c(-c3ccccc3)oc2c1CN(C)C	activity change, negative = inhibition	[1]	inconclusive: -33.8% [inhibitor]
CC(C)=CCCC(C)=CCN1C(=O)[C@@]2(CC(C)=C[C@@H](COCc3ccccc3)O2)c2ccccc21	activity change, negative = inhibition	[1]	inactive: -22.3% [at 8.59 µM]
Nc1ccc(O)c([N+](=O)[O-])c1	Potency	[1]	inactive
Cc1ccc2c(c1)c1c3n2CCN[C@H]3CCC1	Potency	[1]	inconclusive: 14.1 µM [inhibitor, single point]
CCOC(=O)C1=C(C)c2ccccc2OC1(C(=O)OCC)c1ccccc1 (stereo not drawn)	Potency	[1]	inconclusive: 39.8 µM [inhibitor, single point]
